According to patent US9901097B2, “Agricultural and horticultural fungicidal composition” (Nippon Soda Co., Ltd., priority 2011, dated 2018):
The name of at least one read-out is uncertain.

System: cucumber gray mold disease pathogens (Botrytis cinerea)
Test: Control test for cucumber gray mold disease (sprayed cucumber seedlings)
Format: in vivo
Conditions: Table 10; 5 days after inoculation; drug II alone, concentration printed as —
Procedure: The drug I and the drug II were dissolved in an organic solvent and a surfactant, and the prepared mixed emulsifiable concentrate was diluted with water to a predetermined concentration, and sprayed to cucumber seedlings that had been cultivated in unglazed pots (cultivar “Sagamihanjiro” cotyledon stage). Additionally, in Tables, the symbol A indicating the drug I represents a nitrogen-containing heterocyclic compound represented by the formula (A), the symbol B indicating the drug I represents a nitrogen-containing heterocyclic compound represented by the formula (B), and the symbol C indicating the drug I represents a nitrogen-containing heterocyclic compound represented by the formula (C). […]
After air-drying at room temperature, a suspension of the conidia of cucumber gray mold disease pathogens (Botrytis cinerea) was inoculated by dropwise addition and held in a dark room at 20° C. with a high humidity for 3, 4, or 5 days. By investigation on the state of lesion appearance in leaves with comparison with a non-treatment case, the controlling effect was determined. […] In addition, the expected value of the controlling effect was calculated based on Colby's equation. […]
Additionally, the Colby's equation is E=M+N−MN/100. […] Additionally, in Tables, the expected values with the use of the drug alone were the same as the values calculated from the measurement, and were thus not shown.

Cn1nnnc1/C(=N\OCc1cccc(NC(=O)OC(C)(C)C)n1)c1ccccc1 [Drug 38]
Control effect: 0%
